Data from PMC5443536.
These are yes or no findings as the source states them, for the method shown. Binding calls can cover weak binding; strength is not graded here.

Target: AddA (Caulobacter crescentus)
Test: two-hybrid; bacterial two-hybrid: fusions to the T18 or T25 fragments of adenylate cyclase (pUT or pKT vectors), co-transformed into E. coli BTH101; spotted on MacConkey agar with maltose and IPTG, 30 °C, 2-3 days; red colonies show interaction

binding: binds
Substance: AddB (from UniProt A0A0H3CC48)
